{"source": "PubChem BioAssay AID540256", "about": "(National Center for Advancing Translational Sciences (NCATS), 2011)", "note": "The whole screen tested about 300,000 compounds, of which about 3,700 (1.2%) were called active. Inconclusive results, whose numbers are uncertain, are shown with a selection of clear calls. Calls follow the shape of the full dose curve; tested in HEK293 cells. A potency beside an inconclusive call is a rough fit, not a confirmed value. % is scaled to controls: 0 for no effect and ±100 for the full control effect; potency is read from the fitted curve at half-maximal effect."}
{"experiment": "qHTS for Inhibitors of binding or entry into cells for Lassa Virus; also: nearly all actives have a fitted effect of over 50% in size", "conditions": "Lassa virus pseudotype entry inhibition, cell reporter; activity change, negative = inhibition: at 37.9 µM (top of the series) unless noted"}
{"smiles": "O=C(NNC(=O)c1ccc(-n2cncn2)c([N+](=O)[O-])c1)c1ccc(Cl)cc1", "Potency": "inconclusive: 4.47 µM [inhibitor, single point]"}
{"smiles": "CN(c1ccc(OCC(=O)OCC(=O)Nc2ccc(F)cc2)cc1)S(=O)(=O)c1ccc(Cl)cc1", "activity change, negative = inhibition": "inactive: 20.7%"}
{"smiles": "CCOC(=O)c1sc(=NC(=O)c2cccc(Br)c2)n(C)c1C", "Potency": "inconclusive: 4.47 µM [activator, partial curve, poor fit]"}
{"smiles": "O=C(Cn1nnc(-c2cccs2)n1)N1CCOCC1", "activity change, negative = inhibition": "inconclusive: 45.2% [activator]"}
{"smiles": "COC(=O)c1ccc2c(=O)n(CCCCCC(=O)N3CCN(c4cc(C)ccc4C)CC3)c(=O)[nH]c2c1", "Potency": "inconclusive: 17.8 µM [inhibitor, single point]"}
{"smiles": "O=S(=O)(c1ccc(Cl)cc1)c1ccccn1", "activity change, negative = inhibition": "inactive: 27.5%"}
{"smiles": "CCOC(=O)c1c(NC(=O)/C=C/c2ccc(OCC)cc2)sc(C(C)=O)c1C", "activity change, negative = inhibition": "inactive: 9.81% [at 46.1 µM]"}
{"smiles": "CCn1nc(C)c(/C=C/C(=O)Nc2ccc(C)cc2C)c1C", "Potency": "inconclusive: 29.1 µM [inhibitor, single point]"}
{"smiles": "Cc1cccc(C(=O)OCC(=O)Nc2nccs2)c1", "activity change, negative = inhibition": "inactive: 1.12%"}
{"smiles": "CC1(CCC(=O)O)C(=O)CCC2C1CCC1(C)C2CCC1(C)O", "note": "(centres undefined)", "Potency": "inconclusive: 6.31 µM [activator, single point]"}
{"smiles": "Cc1cccc(C(=O)Nc2cc3nn(-c4ccc(C(C)C)cc4)nc3cc2C)c1", "activity change, negative = inhibition": "inactive: 18.7% [at 46.1 µM]"}
{"smiles": "Clc1cccc(-c2nc3ccccn3c2Nc2ccc3c(c2)OCCO3)c1", "activity change, negative = inhibition": "inactive: 0.989% [at 46.1 µM]"}
{"smiles": "CCOC(=O)N1CCC(NC(=O)C2CCN(S(=O)(=O)N3CCCC3)CC2)CC1", "Potency": "inconclusive: 0.73 µM [activator, full curve, poor fit]"}
{"smiles": "COC(=O)c1ccc(Nc2nc(-c3ccccc3Cl)nc3ccccc23)cc1", "Potency": "inconclusive: 3.98 µM [inhibitor, partial curve, poor fit]"}
{"smiles": "O=C1c2cc(Cl)ccc2-c2c(O)cc(Cl)cc21", "Potency": "inconclusive: 25.1 µM [inhibitor, single point]"}
{"smiles": "Cc1c(Cl)cnc(NC(=O)COC(=O)c2cccc(S(=O)(=O)N3CCc4ccccc4C3)c2)c1Cl", "activity change, negative = inhibition": "inactive: 0.875%"}
{"smiles": "CCCCCCC1CC(=O)NC(=O)N1", "note": "(centres undefined)", "Potency": "inconclusive: 1.26 µM [inhibitor, single point]"}
{"smiles": "Cc1csc(NC(=O)CSc2nnnn2C)n1", "activity change, negative = inhibition": "inactive: 27.6%"}
{"smiles": "COC(=O)/C=C1\\N/C(=N\\c2nc(C)cc(C)n2)N(c2ccccc2)C1=O", "activity change, negative = inhibition": "inactive: 2.47%"}
{"smiles": "COc1ccc(NC(=S)NCCSc2ccc(C)cc2)c(OC)c1", "Potency": "inconclusive: 14.1 µM [inhibitor, single point]"}
{"smiles": "COc1cccc(OC(=O)CSc2nnc(-c3cccs3)o2)c1", "Potency": "inconclusive: 35.5 µM [activator, single point]"}
{"smiles": "CC(C)CC(=O)Nc1nnc(-c2ccco2)s1", "Potency": "inconclusive: 29.1 µM [activator, single point]"}
{"smiles": "Cc1ccc(C(OC(=O)c2ccco2)C(=O)NC2CCCC2)cc1", "note": "(centres undefined)", "activity change, negative = inhibition": "inactive: 1.4% [at 46.1 µM]"}
{"smiles": "COc1cc(CN(C2CC2)S(=O)(=O)c2ccccc2Br)cc(OC)c1", "Potency": "inconclusive: 0.0031 µM [inhibitor, full curve, poor fit]"}
{"smiles": "Cn1ncc(Cl)c(Oc2ccccc2)c1=O", "activity change, negative = inhibition": "inactive: -5.25%"}
{"smiles": "Cc1ccc(NS(=O)(=O)c2ccc(OCC(=O)NCc3ccco3)cc2)cc1", "Potency": "inconclusive: 35.5 µM [inhibitor, single point]"}
{"smiles": "CCOC(=O)c1c(CN2CCN(C)CC2)n(C)c2cc(Br)c(OC)cc12", "Potency": "inconclusive: 29.1 µM [inhibitor, single point]"}
{"smiles": "COc1ccc2nc(NC(=O)C3CCN(S(=O)(=O)c4cccc5nsnc45)CC3)sc2c1", "Potency": "active: 4.61 µM"}
{"smiles": "Cc1ccc(-c2nn(CC(=O)O)c(=O)c3ccccc23)cc1", "Potency": "inconclusive: 16.4 µM [activator, partial curve, poor fit]"}
{"smiles": "Cc1ccc(Cl)cc1N(C)C(=O)c1cc2c(Cl)nc3ccccc3c2s1", "Potency": "inconclusive: 5.01 µM [activator, partial curve]"}
{"smiles": "NS(=O)(=O)c1ccc(N=Nc2c(-c3ccccc3)[nH]n(-c3nc(-c4ccccc4)cs3)c2=O)cc1", "Potency": "inconclusive: 35.5 µM [inhibitor, partial curve, poor fit]"}
{"smiles": "O=S(=O)(/N=C(/Nc1cccc2ccccc12)c1ccccc1)c1ccccc1", "Potency": "inconclusive: 10 µM [inhibitor, partial curve, poor fit]"}
{"smiles": "OC(c1ccccc1)(c1ccc(Cl)cc1)C1CN2CCC1CC2", "note": "(centres undefined)", "Potency": "active: 12.6 µM"}
{"smiles": "O=C(N/N=C/c1cccnc1)c1ccc(Cn2cc([N+](=O)[O-])cn2)o1", "activity change, negative = inhibition": "inactive: -12.6% [at 46.1 µM]"}
{"smiles": "O=C(Nc1sc2c(c1C(=O)O)CCCC2)c1cccs1", "Potency": "inconclusive: 29.1 µM [inhibitor, single point]"}
{"smiles": "CCC1CCCCN1Cc1c(O)ccc2c(=O)c(-c3ccccc3)coc12", "note": "(centres undefined)", "Potency": "inconclusive: 22.4 µM [inhibitor, single point]"}
{"smiles": "Cc1ccc(NC(=O)Cn2cc(C(=O)c3ccco3)c3ccccc32)cc1C", "Potency": "inconclusive: 11.2 µM [inhibitor, partial curve, poor fit]"}
{"smiles": "COc1ccc(N(C)C(=O)c2ccc3nc(-c4ccccc4)c(-c4ccccc4)nc3c2)cc1", "Potency": "inconclusive: 20 µM [inhibitor, single point]"}
{"smiles": "Cc1ccc(CNC(=O)C2CCC(CNS(=O)(=O)c3ccc(C)cc3)CC2)cc1", "note": "(centres undefined)", "activity change, negative = inhibition": "inactive: 28.4% [at 46.1 µM]"}
{"smiles": "CCOC(=O)C1(CCc2ccccc2)CCN(Cc2ccc3c(c2)OCCO3)CC1", "Potency": "inconclusive: 12.6 µM [inhibitor, partial curve, poor fit]"}
{"smiles": "CCN(CC)S(=O)(=O)c1cc(NC(=O)C2CCN(c3ncnc4sc(C)c(C)c34)CC2)ccc1Cl", "Potency": "inconclusive: 11.2 µM [inhibitor, partial curve, poor fit]"}
{"smiles": "O=C(CC12CC3CC(CC(Br)(C3)C1)C2)Nc1nncs1", "activity change, negative = inhibition": "inactive: 12.9% [at 46.1 µM]"}
{"smiles": "O=C1NC(=O)c2cc(Nc3ccccc3)c(Nc3ccccc3)cc21", "Potency": "inconclusive: 1.46 µM [inhibitor, full curve, poor fit]"}
{"smiles": "CCOc1ccc(N(C(=O)CNC(=O)c2ccco2)C(C(=O)NC2CCCC2)c2ccco2)cc1", "note": "(centres undefined)", "Potency": "inconclusive: 35.5 µM [inhibitor, single point]"}
